From article PMC5700371
No constants are given. Whether binding was seen depends on the method and setting. Binding seen in cells or lysates may run through a third protein. Some entries that bind do so weakly or less than the wild type.

By UniProt entry, the sequences of proteins in these tests, tags left out.
UniProt P03427: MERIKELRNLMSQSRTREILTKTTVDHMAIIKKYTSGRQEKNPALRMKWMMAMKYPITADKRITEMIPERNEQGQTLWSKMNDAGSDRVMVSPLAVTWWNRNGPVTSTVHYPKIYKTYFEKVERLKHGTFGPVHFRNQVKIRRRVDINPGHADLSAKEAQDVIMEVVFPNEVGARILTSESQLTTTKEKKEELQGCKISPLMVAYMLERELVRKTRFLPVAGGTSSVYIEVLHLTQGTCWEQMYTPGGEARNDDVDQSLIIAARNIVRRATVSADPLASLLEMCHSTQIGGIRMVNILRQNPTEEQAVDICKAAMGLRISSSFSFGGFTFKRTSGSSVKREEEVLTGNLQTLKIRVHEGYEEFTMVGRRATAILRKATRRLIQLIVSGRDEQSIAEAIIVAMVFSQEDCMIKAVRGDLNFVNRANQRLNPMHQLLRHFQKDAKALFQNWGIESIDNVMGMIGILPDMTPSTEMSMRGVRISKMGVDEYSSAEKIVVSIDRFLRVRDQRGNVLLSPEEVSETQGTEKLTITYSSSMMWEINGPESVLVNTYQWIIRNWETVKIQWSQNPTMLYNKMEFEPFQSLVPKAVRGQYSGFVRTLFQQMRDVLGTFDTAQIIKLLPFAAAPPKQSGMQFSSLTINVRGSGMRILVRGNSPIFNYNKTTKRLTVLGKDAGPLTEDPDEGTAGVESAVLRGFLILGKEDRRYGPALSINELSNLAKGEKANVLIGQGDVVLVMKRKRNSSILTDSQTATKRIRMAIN
UniProt P52294: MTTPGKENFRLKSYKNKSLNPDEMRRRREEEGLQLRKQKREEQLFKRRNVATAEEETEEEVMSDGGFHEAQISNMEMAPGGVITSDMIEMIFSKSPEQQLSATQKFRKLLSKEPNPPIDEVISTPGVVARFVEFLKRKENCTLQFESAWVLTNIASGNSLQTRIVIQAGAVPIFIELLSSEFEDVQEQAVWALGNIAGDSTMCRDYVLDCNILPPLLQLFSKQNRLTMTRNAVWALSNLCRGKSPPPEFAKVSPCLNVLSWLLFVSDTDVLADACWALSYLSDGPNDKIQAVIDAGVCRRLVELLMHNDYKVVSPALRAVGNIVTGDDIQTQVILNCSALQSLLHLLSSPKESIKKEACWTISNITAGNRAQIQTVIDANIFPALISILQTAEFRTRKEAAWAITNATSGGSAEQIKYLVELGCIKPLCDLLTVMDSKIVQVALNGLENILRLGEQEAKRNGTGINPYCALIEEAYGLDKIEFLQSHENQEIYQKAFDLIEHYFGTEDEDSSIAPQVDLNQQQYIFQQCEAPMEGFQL
UniProt P37198: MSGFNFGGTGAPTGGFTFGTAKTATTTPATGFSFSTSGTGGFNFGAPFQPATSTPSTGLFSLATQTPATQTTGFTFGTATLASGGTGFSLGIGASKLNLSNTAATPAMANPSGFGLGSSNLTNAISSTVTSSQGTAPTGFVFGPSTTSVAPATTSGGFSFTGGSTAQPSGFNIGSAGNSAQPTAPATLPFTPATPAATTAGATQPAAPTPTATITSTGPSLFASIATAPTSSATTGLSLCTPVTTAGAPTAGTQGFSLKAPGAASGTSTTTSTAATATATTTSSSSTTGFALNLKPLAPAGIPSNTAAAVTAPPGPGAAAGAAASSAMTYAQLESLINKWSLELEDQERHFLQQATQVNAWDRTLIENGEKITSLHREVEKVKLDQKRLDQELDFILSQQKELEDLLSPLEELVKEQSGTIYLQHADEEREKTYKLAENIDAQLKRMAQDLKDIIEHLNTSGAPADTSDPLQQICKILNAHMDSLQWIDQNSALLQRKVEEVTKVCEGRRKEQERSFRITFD

Molecular target: PB2-Glc2 of influenza A virus A/WSN/33 (H1N1WSN) (influenza A virus A/WSN/33 (H1N1)) (UniProt P03427)
Test: split reporter

Substance: KPNA1 (from UniProt P52294 1-538)
- binding: binds

Substance: NUP62 (from UniProt P37198 1-522)
- binding: binds
